The target in series [1] is T1, sclerostin (mouse) (Mus musculus) (UniProt Q99P68).
T1 sequence (looked up, limits assumed): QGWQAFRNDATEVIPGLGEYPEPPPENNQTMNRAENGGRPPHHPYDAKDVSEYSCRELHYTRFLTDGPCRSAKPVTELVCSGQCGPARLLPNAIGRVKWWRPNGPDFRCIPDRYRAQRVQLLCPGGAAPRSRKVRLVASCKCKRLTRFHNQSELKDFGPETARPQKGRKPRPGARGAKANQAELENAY
Put plainly: not stated (cited). Conditions: TBS: 50 mM Tris-Cl pH 7.5, 150 mM NaCl, room temperature, 1 h; BSA-preblocked Ni2+-coated 96-well plate; recombinant protein; label: 3' FAM; single-stranded ….

Series [2] deals with T2, sclerostin (recombinant human) (Homo sapiens) (UniProt Q9BQB4).
T2 sequence (looked up, limits assumed): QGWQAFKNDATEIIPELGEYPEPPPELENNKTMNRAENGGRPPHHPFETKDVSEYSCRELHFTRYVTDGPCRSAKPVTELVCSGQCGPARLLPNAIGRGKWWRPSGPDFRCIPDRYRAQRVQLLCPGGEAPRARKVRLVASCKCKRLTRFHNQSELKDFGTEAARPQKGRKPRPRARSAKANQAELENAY
In words: fluorescence plate binding assay (immobilized protein, washed). Conditions: 500 nM aptamer, no compound (aptamer-only control); TBS: 50 mM Tris-Cl pH 7.5, 150 mM NaCl, room temperature, 1 h; BSA-preblocked Ni2+-coated 96-well plate; commercial protein; protein details: N-terminal His; label: 3' FAM; single-stranded DNA.

The exact form of at least one protein or probe is not confirmed. For some assays here: At least one verdict was read from the data and is not stated in words by the source. Tags and fusion partners may be left off the protein sequences shown.

What is called Kd is a measure of binding affinity in units of concentration. Regarding “TTGCGCGTTAATTGGGGGGGTGGGTGGGTT [sclerostin-specific DNA aptamer]”, the Kd in series [1] stood at 670 nM. Further, the binding result in series [2] is reported as “binds”.

The values are drawn from paper PMC8348959.
